From PubChem BioAssay AID662 (National Center for Advancing Translational Sciences (NCATS), 2007)
This is one part of the list. These are further read-outs of the screen, such as a control signal, another cell line or another target. No call is given for them. Most of these compounds were active or inconclusive in the main read-out, so they are no random draw. Words in brackets tell the shape of the fitted curve; partial curves, single points and poor fits give uncertain potencies.

Assay: Cell signaling CRE-BLA (Fsk stim)
Details: CHO CRE-bla reporter (cAMP response element driving beta-lactamase), forskolin EC10, beta-lactamase ratio; measured here: 460 nm blue channel
Procedure, shortened: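 CHO CRE-bla cells, overnight plating in Opti-MEM with 0.5% dialyzed FBS; cpd titration + EC10 NKH 477, 3 h 37 °C; CCF4 2 h RT; ex 405/em 460 vs 530 ratio → %Activity, AC50.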

SMILES | AC50
CCOC(=O)c1[nH]c(C)c(C(=O)NCc2ccc(C)cc2)c1C | 10 µM [rising, partial curve]
CC1(C)Cc2c(sc3c2c(=N)n(Cc2ccco2)c(=O)n3Cc2ccccc2)CO1 | 5.01 µM [rising, partial curve]
Cc1ccccc1-c1nnc(SCC(=O)Nc2cccc(C)c2C)o1 | 0.0316 µM [falling, full curve, poor fit]
O=C(CSc1ncn[nH]1)Nc1ccc(Cl)c(Cl)c1 | 7.94 µM [falling, partial curve]
Cc1nc2ccccc2c(=O)n1/N=C/c1cn(-c2ccccc2)nc1-c1cccs1 | 2.51 µM [rising, full curve]
CCn1c(SCC(=O)Nc2cc(C)on2)nnc1-c1ccncc1 | 3.98 µM [falling, single point]
O=C1CC(=O)CC(c2ccccc2Cl)C1 | 0.398 µM [rising, partial curve]
Cc1ccc(Cn2nnc3c(=O)n(Cc4cc(C)ccc4C)cnc32)cc1 | 12.6 µM [rising, single point]
CCN(C(=O)COc1cc(=O)n(CC)c2ccccc12)c1cc(Cl)ccc1OC | 12.6 µM [rising, partial curve]
CCC(=O)N1CCCc2cc(S(=O)(=O)N3CCN(C4CCCCC4)CC3)ccc21 | 0.126 µM [falling, full curve]
O=C(c1cc2nc(C3CC3)cc(C(F)(F)F)n2n1)N1CCCC1 | 12.6 µM [rising, single point]
O=C(NCC1COc2ccccc2O1)C1CCCN(S(=O)(=O)c2cccc3nsnc23)C1 (stereo not drawn) | 0.0631 µM [falling, full curve, poor fit]
CCC(C)(C(=O)NC1CCCC1)N(C(=O)CNC(C)=O)c1ccccc1 (stereo not drawn) | 2 µM [falling, partial curve, poor fit]
COc1ccccc1C1C=C(c2ccc(Cl)cc2)Nc2nc(NS(C)(=O)=O)nn21 (stereo not drawn) | 20 µM [rising, single point]
Cc1nc(SCC(=O)Nc2ccc(C)c(F)c2)c2oc3ccccc3c2n1 | 0.631 µM [rising, full curve]
CCOC(=O)c1c(/N=C/N(C)C)sc(C(=O)OC)c1C | 10 µM [rising, single point]
O=C(Nc1ncc(Br)s1)C(Cc1ccccc1)n1cccc1 (stereo not drawn) | 25.1 µM [falling, single point]
c1ccc2c(c1)Cc1cc3cc4c(cc3nc1-2)OCO4 | 15.8 µM [rising, single point]
CN(C)C(=O)c1ccc(-c2nc(NCc3cccnc3)c3ccccc3n2)cc1 | 3.16 µM [rising, full curve]
Clc1ccc(OCc2nn3c(-c4ccco4)nnc3s2)c(Cl)c1 | 25.1 µM [falling, single point]
COc1cccc(NS(=O)(=O)c2ccc3[nH]cc(C(=O)NCCCOC(C)C)c(=O)c3c2)c1 | 0.126 µM [falling, full curve, poor fit]
COc1ccc2nc3c(cc2c1)c(NC(=O)c1cccs1)nn3CC(C)C | 10 µM [rising, partial curve]

SMILES | AC50
CC(C)C1N(c2ccccc2)C(N)=C(C#N)C1(C#N)C#N (stereo not drawn) | 31.6 µM [falling, partial curve, poor fit]
c1ccc(COc2nsnc2N2CCOCC2)cc1 | 10 µM [rising, single point]
Cc1cc(=O)[nH]c2c(C)c(N)ccc12 | 25.1 µM [rising, single point]
CCCCC(=O)NC1(C(F)(F)F)C(=O)N(Cc2ccco2)C(C)=C1C(=O)OC (stereo not drawn) | 0.00316 µM [falling, full curve, poor fit]
O=c1oc2cc(O)ccc2c2c1CCCC2 | 25.1 µM [rising, single point]
CCOC(=O)c1cnn2c(C(F)(F)F)cc(-c3ccco3)nc12 | 12.6 µM [rising, partial curve]
O=C(CCSCCC(=O)NCCN1CCOCC1)NCCN1CCOCC1 | 0.01 µM [falling, full curve]
OCCSc1nc(-c2cccnc2)nc2ccccc12 | 15.8 µM [rising, partial curve, poor fit]
Cc1cccc2cc(CN(Cc3nnnn3Cc3ccco3)C3CCCC3)c3nnnn3c12 | 10 µM [rising, partial curve]
CC(=O)NCCNc1nc(-c2cccc(NS(C)(=O)=O)c2)nc2ccccc12 | 10 µM [rising, partial curve]
COc1cc2c(cc1OC)C1=C(C#N)CN(C3CCCCC3)CN1CC2 | 0.794 µM [rising, full curve]
Cc1ccc(-c2c3c(=O)n(C)c(=O)n(C)c3c3c(C)cc(C)nn23)cc1 | 0.316 µM [falling, partial curve]
COc1cc(CNc2ccc3c(c2)CCC3)cc(OC)c1O | 0.00316 µM [falling, full curve, poor fit]
O=C(NC1CCCCC1)C(c1ccccc1F)N(Cc1ccco1)C(=O)Cn1nnc2ccccc21 (stereo not drawn) | 25.1 µM [rising, single point]
COc1ccc(-c2nc3cnc(N(C)C)nc3n(C)c2=O)cc1 | 2.51 µM [rising, full curve]
O=S(=O)(c1ccc(F)cc1)N1CCN(c2ncnc3c2cnn3-c2ccccc2)CC1 | 0.126 µM [falling, partial curve, poor fit]
COCC(=O)N1CCC2(CCCN(c3ccc(-c4ccccc4)cc3)C2)CC1 | 12.6 µM [rising, single point]
O=C(OCC(=O)N1CCCCCC1)c1n[nH]c(=O)c2ccccc12 | 0.1 µM [falling, single point]
Cc1nc2ccccn2c1C(=O)c1ccccc1 | 2.51 µM [falling, partial curve]
COc1ccccc1-c1cc(C(F)(F)F)nc(S(=O)(=O)CCCC(=O)N2CCCCC2C)n1 (stereo not drawn) | 12.6 µM [falling, partial curve]
Cc1cc(C)n2nc(SCC(=O)c3cc(C)n(-c4cc(C)on4)c3C)nc2n1 | 12.6 µM [rising, partial curve]

Pulled by compound from the list above:
SMILES | AC50
Cc1ccc(-c2c3c(=O)n(C)c(=O)n(C)c3c3c(C)cc(C)nn23)cc1 | 0.316 µM [falling, partial curve]
COc1ccc(-c2nc3cnc(N(C)C)nc3n(C)c2=O)cc1 | 2.51 µM [rising, full curve]
Cc1cc(=O)[nH]c2c(C)c(N)ccc12 | 25.1 µM [rising, single point]
